Publication doi:10.1101/2022.04.29.490041
Numbering of substitutions follows the chain as printed. These are yes or no findings as the source states them, for the method shown. Binding seen in cells or lysates may run through a third protein. Binding can be weak; no strength is given. Sequences can lack the tags named with a protein.

Tests used:
Experiment in all cases: co-IP
[1] = biological target: T1, NSF:GFP (N-ethylmaleimide-sensitive factor, wild-type form, GFP-tagged) (Arabidopsis thaliana) (UniProt Q9M0Y8)
T1 sequence: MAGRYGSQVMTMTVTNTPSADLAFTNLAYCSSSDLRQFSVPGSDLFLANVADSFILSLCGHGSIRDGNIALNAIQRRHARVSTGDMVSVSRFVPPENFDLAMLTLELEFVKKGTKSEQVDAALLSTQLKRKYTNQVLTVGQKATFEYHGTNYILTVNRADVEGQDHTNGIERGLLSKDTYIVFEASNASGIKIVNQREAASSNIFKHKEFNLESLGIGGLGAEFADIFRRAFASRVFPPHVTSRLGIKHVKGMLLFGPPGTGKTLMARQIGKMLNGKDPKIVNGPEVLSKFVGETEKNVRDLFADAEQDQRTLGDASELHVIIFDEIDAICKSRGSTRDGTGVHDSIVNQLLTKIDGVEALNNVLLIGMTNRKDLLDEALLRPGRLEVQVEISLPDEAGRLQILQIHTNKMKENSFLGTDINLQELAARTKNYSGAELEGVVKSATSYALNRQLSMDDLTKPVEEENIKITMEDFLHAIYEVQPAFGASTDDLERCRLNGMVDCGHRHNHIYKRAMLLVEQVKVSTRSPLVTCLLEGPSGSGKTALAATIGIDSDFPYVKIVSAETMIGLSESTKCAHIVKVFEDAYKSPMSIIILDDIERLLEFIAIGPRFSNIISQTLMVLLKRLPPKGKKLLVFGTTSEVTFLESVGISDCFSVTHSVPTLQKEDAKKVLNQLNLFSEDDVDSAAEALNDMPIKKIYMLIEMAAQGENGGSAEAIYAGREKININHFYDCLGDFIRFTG

[2] = biological target: T2, mRFP:αSNAP2 (alpha-soluble NSF-associated protein 2, wild-type form, RFP-tagged) (Arabidopsis thaliana) (UniProt Q9SPE6)
T2 sequence: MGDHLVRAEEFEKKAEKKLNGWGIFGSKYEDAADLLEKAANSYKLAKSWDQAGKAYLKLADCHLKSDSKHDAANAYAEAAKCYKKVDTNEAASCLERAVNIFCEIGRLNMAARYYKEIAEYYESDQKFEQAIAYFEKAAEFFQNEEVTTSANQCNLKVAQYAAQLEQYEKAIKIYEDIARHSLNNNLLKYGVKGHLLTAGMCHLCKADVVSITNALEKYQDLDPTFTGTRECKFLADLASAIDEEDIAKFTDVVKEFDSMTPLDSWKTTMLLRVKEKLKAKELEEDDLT

[3] = biological target: T3, mRFP:αSNAP2_(L288A) (dominant-negative variant of αSNAP2, RFP-tagged) (Arabidopsis thaliana) (UniProt Q9SPE6)
T3 sequence: T2 sequence with L288A

Measured: binding

KNOLLE (cytokinesis-specific Qa-SNARE)
binds: [1] | [2] | [3]
